What all share (experiment): pull-down; Halo-tagged bait expressed in 293T cells, captured from extracts on Magne HaloTag beads (wash 300 mM NaCl), eluted with TEV protease; endogenous preys seen by western blotting and silver staining; for SETD2CΔSRI with and without RNase treatment
The target of assay [1] is T1, Halo-SETD2C L2188A L2189A (human) (UniProt Q9BYW2).
T1 sequence: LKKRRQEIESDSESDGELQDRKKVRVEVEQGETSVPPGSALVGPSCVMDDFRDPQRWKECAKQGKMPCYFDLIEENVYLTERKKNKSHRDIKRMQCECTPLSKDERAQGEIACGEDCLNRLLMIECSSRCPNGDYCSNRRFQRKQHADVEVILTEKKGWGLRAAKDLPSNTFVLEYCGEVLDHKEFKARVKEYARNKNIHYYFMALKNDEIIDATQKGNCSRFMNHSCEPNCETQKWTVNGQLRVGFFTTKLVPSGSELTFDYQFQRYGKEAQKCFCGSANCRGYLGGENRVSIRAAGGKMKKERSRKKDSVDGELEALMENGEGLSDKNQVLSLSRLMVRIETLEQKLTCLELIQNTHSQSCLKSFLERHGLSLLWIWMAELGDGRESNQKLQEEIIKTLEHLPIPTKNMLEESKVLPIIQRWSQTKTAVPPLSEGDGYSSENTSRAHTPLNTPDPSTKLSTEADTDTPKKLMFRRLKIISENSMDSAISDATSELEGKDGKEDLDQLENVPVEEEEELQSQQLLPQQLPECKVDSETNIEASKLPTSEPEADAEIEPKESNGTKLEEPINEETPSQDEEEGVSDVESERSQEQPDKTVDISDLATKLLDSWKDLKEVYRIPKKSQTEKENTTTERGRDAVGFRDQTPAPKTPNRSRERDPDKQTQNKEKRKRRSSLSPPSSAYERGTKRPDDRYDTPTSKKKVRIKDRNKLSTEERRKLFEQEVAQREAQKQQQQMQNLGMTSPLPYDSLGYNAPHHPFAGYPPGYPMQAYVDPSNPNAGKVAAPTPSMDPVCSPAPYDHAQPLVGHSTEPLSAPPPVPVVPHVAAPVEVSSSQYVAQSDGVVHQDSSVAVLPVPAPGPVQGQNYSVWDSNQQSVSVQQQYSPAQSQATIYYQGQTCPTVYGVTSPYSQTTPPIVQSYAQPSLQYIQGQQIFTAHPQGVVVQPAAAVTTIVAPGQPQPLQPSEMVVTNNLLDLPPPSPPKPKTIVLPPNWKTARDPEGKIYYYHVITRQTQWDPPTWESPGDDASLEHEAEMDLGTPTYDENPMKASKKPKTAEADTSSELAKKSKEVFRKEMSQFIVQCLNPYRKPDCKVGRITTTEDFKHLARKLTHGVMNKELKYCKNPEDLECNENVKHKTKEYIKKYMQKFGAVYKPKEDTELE

Assay [2] concerns the target T2, Halo-SETD2C (1404–2564) (human) (UniProt Q9BYW2).
T2 sequence: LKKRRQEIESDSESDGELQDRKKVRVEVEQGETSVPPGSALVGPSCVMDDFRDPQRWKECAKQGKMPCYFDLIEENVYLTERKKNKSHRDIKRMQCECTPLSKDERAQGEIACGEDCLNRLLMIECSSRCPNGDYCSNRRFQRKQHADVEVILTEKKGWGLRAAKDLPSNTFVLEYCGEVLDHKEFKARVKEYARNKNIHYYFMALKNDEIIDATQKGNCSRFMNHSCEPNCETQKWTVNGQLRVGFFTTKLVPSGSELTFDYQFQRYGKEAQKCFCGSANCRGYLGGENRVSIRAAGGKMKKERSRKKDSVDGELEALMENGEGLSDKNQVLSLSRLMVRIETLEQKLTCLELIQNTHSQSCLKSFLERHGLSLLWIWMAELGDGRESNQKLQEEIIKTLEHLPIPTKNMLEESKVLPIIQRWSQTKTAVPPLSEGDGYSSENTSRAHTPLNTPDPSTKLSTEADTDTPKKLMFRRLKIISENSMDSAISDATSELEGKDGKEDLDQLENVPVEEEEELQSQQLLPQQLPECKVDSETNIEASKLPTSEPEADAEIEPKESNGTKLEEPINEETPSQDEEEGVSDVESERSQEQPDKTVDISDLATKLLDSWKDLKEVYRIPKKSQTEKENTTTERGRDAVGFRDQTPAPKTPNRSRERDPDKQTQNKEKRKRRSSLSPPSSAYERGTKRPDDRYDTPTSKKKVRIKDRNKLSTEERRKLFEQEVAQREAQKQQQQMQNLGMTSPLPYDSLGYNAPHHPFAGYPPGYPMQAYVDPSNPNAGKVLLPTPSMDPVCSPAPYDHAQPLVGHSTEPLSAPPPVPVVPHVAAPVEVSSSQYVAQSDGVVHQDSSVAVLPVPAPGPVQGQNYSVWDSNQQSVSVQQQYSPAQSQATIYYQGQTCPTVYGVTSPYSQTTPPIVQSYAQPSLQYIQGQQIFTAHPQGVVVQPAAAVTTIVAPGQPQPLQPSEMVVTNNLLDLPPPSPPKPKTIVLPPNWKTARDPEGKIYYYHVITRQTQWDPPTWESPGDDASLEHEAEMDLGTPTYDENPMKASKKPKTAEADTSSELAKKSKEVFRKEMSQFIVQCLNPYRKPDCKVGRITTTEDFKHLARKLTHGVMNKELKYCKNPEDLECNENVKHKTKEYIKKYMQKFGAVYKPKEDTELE

The target in assay [3] is T3, Halo-SETD2CΔSHI (Δ2164–2213) (human) (UniProt Q9BYW2).
T3 sequence: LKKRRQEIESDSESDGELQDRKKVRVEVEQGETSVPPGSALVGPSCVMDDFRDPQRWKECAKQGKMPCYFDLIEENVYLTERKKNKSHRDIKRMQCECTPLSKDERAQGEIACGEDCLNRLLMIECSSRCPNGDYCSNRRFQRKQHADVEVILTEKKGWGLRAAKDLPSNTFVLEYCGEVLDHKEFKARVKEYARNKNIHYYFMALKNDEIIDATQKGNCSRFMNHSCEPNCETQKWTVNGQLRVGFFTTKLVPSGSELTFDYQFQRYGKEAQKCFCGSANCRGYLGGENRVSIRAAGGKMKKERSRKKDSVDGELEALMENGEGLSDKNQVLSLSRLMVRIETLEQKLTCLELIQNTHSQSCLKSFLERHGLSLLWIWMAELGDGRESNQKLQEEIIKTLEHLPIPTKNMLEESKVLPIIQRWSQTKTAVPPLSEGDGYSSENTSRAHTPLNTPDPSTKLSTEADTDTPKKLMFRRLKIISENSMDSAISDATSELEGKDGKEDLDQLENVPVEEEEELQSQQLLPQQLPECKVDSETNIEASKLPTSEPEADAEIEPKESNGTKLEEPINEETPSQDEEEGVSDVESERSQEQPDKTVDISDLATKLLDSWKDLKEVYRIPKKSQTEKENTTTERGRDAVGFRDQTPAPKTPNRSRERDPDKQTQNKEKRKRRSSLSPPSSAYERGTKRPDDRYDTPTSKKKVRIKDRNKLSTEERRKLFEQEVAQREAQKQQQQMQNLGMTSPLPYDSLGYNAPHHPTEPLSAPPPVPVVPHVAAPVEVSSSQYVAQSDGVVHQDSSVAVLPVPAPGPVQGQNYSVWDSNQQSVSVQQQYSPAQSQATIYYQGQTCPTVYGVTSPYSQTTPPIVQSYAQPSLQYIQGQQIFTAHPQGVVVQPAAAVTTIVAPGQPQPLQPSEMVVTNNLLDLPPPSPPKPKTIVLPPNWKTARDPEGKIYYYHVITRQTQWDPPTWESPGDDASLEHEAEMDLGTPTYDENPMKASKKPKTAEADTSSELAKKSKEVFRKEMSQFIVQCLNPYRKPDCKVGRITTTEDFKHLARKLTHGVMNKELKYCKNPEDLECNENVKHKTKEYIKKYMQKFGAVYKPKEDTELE

No constants are given. Whether binding was seen depends on the method and setting. Binding seen in cells or lysates may run through a third protein. Some entries that bind do so weakly or less than the wild type.

The values below come from publication PMC8575775, “Structural basis of the interaction between SETD2 methyltransferase and hnRNP L paralogs for governing co-transcriptional splicing” (Nature Communications, 2021).

B1: hnRNP L (endogenous) (protein, UniProt P14866 1-589)
chain: MSRRLLPRAEKRRRRLEQRQQPDEQRRRSGAMVKMAAAGGGGGGGRYYGGGSEGGRAPKRLKTDNAGDQHGGGGGGGGGAGAAGGGGGGENYDDPHKTPASPVVHIRGLIDGVVEADLVEALQEFGPISYVVVMPKKRQALVEFEDVLGACNAVNYAADNQIYIAGHPAFVNYSTSQKISRPGDSDDSRSVNSVLLFTILNPIYSITTDVLYTICNPCGPVQRIVIFRKNGVQAMVEFDSVQSAQRAKASLNGADIYSGCCTLKIEYAKPTRLNVFKNDQDTWDYTNPNLSGQGDPGSNPNKRQRQPPLLGDHPAEYGGPHGGYHSHYHDEGYGPPPPHYEGRRMGPPVGGHRRGPSRYGPQYGHPPPPPPPPEYGPHADSPVLMVYGLDQSKMNCDRVFNVFCLYGNVEKVKFMKSKPGAAMVEMADGYAVDRAITHLNNNFMFGQKLNVCVSKQPAIMPGQSYGLEDGSCSYKDFSESRNNRFSTPEQAAKNRIQHPSNVLHFFNAPLEVTEENFFEICDELGVKRPSSVKVFSGKSERSSSGLLEWESKSDALETLGFLNHYQMKNPNGPYPYTLKLCFSTAQHAS
On to B1, for which the binding entry in assay [1] is given as “no binding”; in assay [2], “binds”; in assay [3], “no binding”.
